Experimental data: doi:10.1101/2022.03.31.486616
No constants are given. Whether binding was seen depends on the method and setting. In cells and extracts the contact can be indirect. Some binding calls cover weakened binding; strength is not graded here. Tags and fused reporters may be left off the sequences shown.

Protein sequences, listed by entry. Tags and fused reporters are not part of them.
UniProt Q9KVG7: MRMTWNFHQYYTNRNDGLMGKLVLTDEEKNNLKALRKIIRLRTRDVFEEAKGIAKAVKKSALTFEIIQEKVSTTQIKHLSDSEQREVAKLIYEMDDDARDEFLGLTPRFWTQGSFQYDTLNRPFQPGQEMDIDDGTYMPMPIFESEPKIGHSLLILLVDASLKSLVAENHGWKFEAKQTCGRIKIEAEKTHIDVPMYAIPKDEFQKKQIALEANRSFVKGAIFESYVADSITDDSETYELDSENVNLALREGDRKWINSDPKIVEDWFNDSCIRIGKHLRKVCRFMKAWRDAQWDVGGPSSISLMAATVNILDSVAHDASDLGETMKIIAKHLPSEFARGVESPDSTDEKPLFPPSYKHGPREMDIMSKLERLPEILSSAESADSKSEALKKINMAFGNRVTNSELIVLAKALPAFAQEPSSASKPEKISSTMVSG

Key:
[1] = molecular target: T1, V. cholerae Cap2-3×FLAG (V. cholerae) (UniProt Q9KVG6); assay: co-IP
T1 sequence: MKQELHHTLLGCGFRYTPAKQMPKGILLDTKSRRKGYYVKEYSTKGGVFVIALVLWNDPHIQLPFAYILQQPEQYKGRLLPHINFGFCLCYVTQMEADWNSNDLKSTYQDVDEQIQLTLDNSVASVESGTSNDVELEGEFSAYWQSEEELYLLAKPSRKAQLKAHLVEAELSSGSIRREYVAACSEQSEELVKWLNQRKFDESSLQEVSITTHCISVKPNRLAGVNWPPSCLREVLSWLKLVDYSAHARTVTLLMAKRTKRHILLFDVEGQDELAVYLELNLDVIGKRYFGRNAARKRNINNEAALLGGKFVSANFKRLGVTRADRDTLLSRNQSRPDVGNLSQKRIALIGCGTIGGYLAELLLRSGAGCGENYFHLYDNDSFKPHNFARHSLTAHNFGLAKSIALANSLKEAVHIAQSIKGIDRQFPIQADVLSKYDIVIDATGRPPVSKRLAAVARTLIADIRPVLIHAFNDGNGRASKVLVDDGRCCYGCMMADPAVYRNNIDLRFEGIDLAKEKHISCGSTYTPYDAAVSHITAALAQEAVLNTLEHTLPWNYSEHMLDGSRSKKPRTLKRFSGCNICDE

[2] = molecular target: V. cholerae cGAS (DncV) (V. cholerae) (UniProt Q9KVG7); assay: co-IP

| Molecule | binding [1] | binding [2] |
| --- | --- | --- |
| V. cholerae cGAS (DncV) (from UniProt Q9KVG7 1-436) (enzyme) | binds |  |
| V. cholerae Cap2-3×FLAG (enzyme, UniProt Q9KVG6 1-584) MKQELHHTLLGCGFRYTPAKQMPKGILLDTKSRRKGYYVKEYSTKGGVFVIALVLWNDPHIQLPFAYILQQPEQYKGRLLPHINFGFCLCYVTQMEADWNSNDLKSTYQDVDEQIQLTLDNSVASVESGTSNDVELEGEFSAYWQSEEELYLLAKPSRKAQLKAHLVEAELSSGSIRREYVAACSEQSEELVKWLNQRKFDESSLQEVSITTHCISVKPNRLAGVNWPPSCLREVLSWLKLVDYSAHARTVTLLMAKRTKRHILLFDVEGQDELAVYLELNLDVIGKRYFGRNAARKRNINNEAALLGGKFVSANFKRLGVTRADRDTLLSRNQSRPDVGNLSQKRIALIGCGTIGGYLAELLLRSGAGCGENYFHLYDNDSFKPHNFARHSLTAHNFGLAKSIALANSLKEAVHIAQSIKGIDRQFPIQADVLSKYDIVIDATGRPPVSKRLAAVARTLIADIRPVLIHAFNDGNGRASKVLVDDGRCCYGCMMADPAVYRNNIDLRFEGIDLAKEKHISCGSTYTPYDAAVSHITAALAQEAVLNTLEHTLPWNYSEHMLDGSRSKKPRTLKRFSGCNICDE |  | binds |
